Data source: PubChem BioAssay AID1259308 (NCATS, 2017)

- Purpose: 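Knock-downs that increase output of a recombinant reporter protein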 (primary screen)
- Cell system: human HEK293 embryonic kidney cells stably expressing firefly luciferase (HEK-CMV-Luc2-Hygro)
- Reagent: single siRNA against human genes, 0.8 pmol siRNA per well
- Time to read-out: 72 h
- Measured: 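Luciferase light (ONE-Glo) measured on one replicate plate set and viability (CellTiter-Glo) on the other, scaled to a negative control siRNA, with robust z-scores and luciferase per cell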
- Direction: total luciferase, z-score and total luciferase, % of control: higher = more reporter protein produced
- Call rule: 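Active when the median/MAD z-score for overall luciferase is greater than 3; a gene was taken forward for validation with new siRNAs if at least two of its three siRNAs passed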
- Meaning of the calls: active = raised luciferase; inactive = no rise
Shown is an unselected part of about 59,000 reagents. Over the whole deposit, about 1,510 (2.6%) were called active. 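Calls use total luciferase alone and ignore viability, so some active siRNAs may act by altering cell number.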 Reagents against one gene are numbered here. Not all columns of the deposit are shown.

no.	gene knocked down	reagent	total luciferase, z-score	total luciferase, % of control	call
1	LACTB2	1	0.969	101	inactive
2	LACTB2	2	0.749	96.8	inactive
3	LACTB2	3	-0.406	73.8	inactive
4	RABEP1	1	-1.23	57.3	inactive
5	RABEP1	2	-0.523	71.5	inactive
6	RABEP1	3	0.292	87.7	inactive
7	STRBP	1	1.86	119	inactive
8	STRBP	2	-0.0144	81.6	inactive
9	STRBP	3	-1.26	56.7	inactive
10	EEPD1	1	-0.579	70.4	inactive
11	EEPD1	2	-0.1	79.9	inactive
12	EEPD1	3	0.341	88.7	inactive
13	COX19	1	0.0575	83	inactive
14	COX19	2	0.545	92.7	inactive
15	COX19	3	1.04	103	inactive
16	TGFBI	1	-0.936	63.3	inactive
17	TGFBI	2	0.793	97.7	inactive
18	TGFBI	3	5.52	192	active
19	C8G	1	-0.201	77.9	inactive
20	C8G	2	-0.732	67.3	inactive
21	C8G	3	-0.0375	81.1	inactive
22	CT45A3	1	-0.886	64.3	inactive
23	CT45A3	2	-0.521	71.5	inactive
24	CT45A3	3	0.161	85.1	inactive
25	MIOX	1	-0.0493	80.9	inactive
26	MIOX	2	0.706	95.9	inactive
27	MIOX	3	-0.465	72.6	inactive
28	NAALADL2	1	0.281	87.5	inactive
29	NAALADL2	2	-0.658	68.8	inactive
30	NAALADL2	3	0.231	86.5	inactive

The list goes on (3 carried over from the part before).
no.	gene knocked down	reagent	total luciferase, z-score	total luciferase, % of control	call
28	NAALADL2	1	0.281	87.5	inactive
29	NAALADL2	2	-0.658	68.8	inactive
30	NAALADL2	3	0.231	86.5	inactive
31	ZSCAN32	1	0.022	82.3	inactive
32	ZSCAN32	2	0.311	88.1	inactive
33	ZSCAN32	3	-0.398	74	inactive
34	SMYD3	1	-2.04	41.4	inactive
35	SMYD3	2	-0.129	79.3	inactive
36	SMYD3	3	-0.0428	81	inactive
37	SLC12A9	1	-1.25	57.1	inactive
38	SLC12A9	2	0.0052	82	inactive
39	SLC12A9	3	0.733	96.5	inactive
40	TMEM135	1	0.178	85.4	inactive
41	TMEM135	2	1.03	102	inactive
42	TMEM135	3	0.251	86.9	inactive
43	LOC401442	1	0.342	88.7	inactive
44	LOC401442	2	0.523	92.3	inactive
45	LOC401442	3	-1.6	50	inactive
46	SLC25A14	1	-0.0171	81.5	inactive
47	SLC25A14	2	1.33	108	inactive
48	SLC25A14	3	-0.0495	80.9	inactive
49	AKNA	1	-0.607	69.8	inactive
50	AKNA	2	0.606	93.9	inactive
51	AKNA	3	0.315	88.1	inactive
52	SORD2P	1	0.381	89.5	inactive
53	SORD2P	2	-0.977	62.4	inactive
54	SORD2P	3	0.238	86.6	inactive
55	PRSS27	1	-1.77	46.7	inactive
56	PRSS27	2	0.195	85.8	inactive
57	PRSS27	3	2.73	136	inactive
